Data as given in PubChem BioAssay AID652243 (Drosophila RNAi Screening Center, 2013).

Test: 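Knock-downs that decrease or increase androgen receptor reporter signal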 (primary screen)
Cell system: Drosophila S2R+ cells
Knock-down reagent: long dsRNA against Drosophila genes
Time to read-out: 72 h (48 h, then 24 h hormone)
Challenge: synthetic androgen R1881 at 10 nM for 24 h
Detection: 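Firefly light from an androgen-responsive reporter and Renilla control light per well, raw and unnormalised, for each of two replicates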
Direction: firefly reporter light: higher = more light from androgen-responsive reporter; Renilla control light: higher = more constitutive control signal (cell number, transfection)
Rule for the call: 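Across duplicate plates, a knock-down whose log firefly/Renilla ratio shifted a set fold down or up from the GFP/LacZ control mean was a hit; the downward cut appears as both 1.5 and 3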
Calls: active = hit: reporter lowered or raised; inactive = no hit
The screen tested about 24,000 reagents; below is a random part of those with a known target gene and a result. Of all reagents, 246 (1%) got an active call. 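Plates not normalised; calls are printed but the firefly/Renilla ratio behind them is not deposited; fold cut for lowering reported inconsistently.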 Raw values are not corrected between plates. Not given: the amount of reagent.

| Gene | dsRNA | firefly reporter light, replicate 1 | firefly reporter light, replicate 2 | Renilla control light, replicate 1 | Renilla control light, replicate 2 | Outcome |
| --- | --- | --- | --- | --- | --- | --- |
| Epg5 | DRSC14778 | 2.18e5 | 2.20e5 | 3.45e6 | 3.08e6 | inactive |
| Swt1 | DRSC20028 | 73711 | 81227 | 5.24e5 | 5.27e5 | inactive |
| CG12299 | DRSC02158 | 1.28e6 | 5.44e5 | 1.12e6 | 7.60e5 | inactive |
| CG12299 | DRSC23611 | 1.38e6 | 1.32e6 | 1.29e6 | 1.44e6 | inactive |
| CG12299 | DRSC39017 | 6.61e5 | 4.08e5 | 1.97e6 | 1.01e6 | inactive |
| CG33764 | DRSC37812 | 8.39e5 | 8.98e5 | 2.27e6 | 2.36e6 | inactive |
| CG12229 | DRSC09868 | 2.32e5 | 2.42e5 | 2.41e6 | 2.22e6 | inactive |
| CG12229 | DRSC39266 | – | – | – | – | inactive |
| CG12229 | DRSC39304 | – | – | – | – | inactive |
| Git | DRSC06620 | 1.48e6 | 1.21e6 | 1.70e6 | 1.72e6 | inactive |
| Git | DRSC28567 | 5.21e5 | 5.35e5 | 8.89e5 | 1.22e6 | inactive |
| Ephrin | DRSC17165 | 2.35e5 | 1.97e5 | 2.26e6 | 1.87e6 | inactive |
| Crz | DRSC16615 | 1.61e5 | 1.94e5 | 2.13e6 | 2.27e6 | inactive |
| CG31751 | DRSC02464 | 1.42e5 | 1.24e5 | 1.60e6 | 9.26e5 | inactive |
| CG31751 | DRSC02465 | 97679 | 85654 | 1.08e6 | 9.20e5 | inactive |
| Nepl8 | DRSC02759 | 1.84e5 | 1.01e5 | 2.08e6 | 1.33e6 | inactive |
| trio | DRSC07928 | 83468 | 1.35e5 | 1.48e5 | 2.81e5 | inactive |
| trio | DRSC08740 | 30049 | 53157 | 7.66e5 | 9.89e5 | active |
| trio | DRSC26700 | 2.69e5 | 2.70e5 | 8.18e5 | 7.75e5 | inactive |
| snRNA:U12 | DRSC37892 | 6.71e5 | 6.26e5 | 1.26e6 | 1.19e6 | inactive |
| CG34444 | DRSC06435 | 65486 | 77816 | 6.45e5 | 6.45e5 | inactive |
| HLH54F | DRSC07438 | 63585 | 52500 | 8.96e5 | 8.96e5 | inactive |
| CG2247 | DRSC19844 | 1.25e5 | 1.22e5 | 8.51e5 | 7.58e5 | inactive |
| stx | DRSC23075 | 5.68e5 | 6.66e5 | 7.17e5 | 6.52e5 | inactive |
| stx | DRSC29601 | 2.21e5 | 2.20e5 | 8.00e5 | 8.00e5 | inactive |
| lncRNA:CR9284 | DRSC03899 | 1.79e5 | 1.45e5 | 2.98e5 | 3.06e5 | inactive |
| lncRNA:CR9284 | DRSC04536 | 8.81e5 | 6.35e5 | 1.67e6 | 1.76e6 | inactive |
| Cyp4d2 | DRSC18458 | 74184 | 85573 | 6.79e5 | 5.01e5 | inactive |
| CG15262 | DRSC01975 | 97939 | 1.62e5 | 1.31e6 | 1.66e6 | inactive |
| Sar1 | DRSC17049 | 78985 | 94147 | 1.05e6 | 1.27e6 | inactive |
| Sar1 | DRSC22115 | 4.34e5 | 6.51e5 | 1.33e6 | 1.80e6 | inactive |
| Sar1 | DRSC24141 | 3.24e5 | 3.10e5 | 1.32e6 | 6.44e5 | inactive |
| Nmdar2 | DRSC18183 | 3.34e5 | 3.29e5 | 4.95e6 | 3.86e6 | inactive |
| Nmdar2 | DRSC18511 | 2.85e5 | 2.92e5 | 3.59e6 | 3.87e6 | inactive |
| Nmdar2 | DRSC18569 | 3.25e5 | 3.26e5 | 3.06e6 | 2.16e6 | inactive |
| CG5568 | DRSC10518 | 4.53e5 | 3.58e5 | 3.06e6 | 2.87e6 | inactive |
| CG5568 | DRSC22816 | 6.06e5 | 9.50e5 | 1.06e6 | 1.79e6 | inactive |
| CG5568 | DRSC24887 | 5.28e5 | 9.52e5 | 5.82e5 | 7.14e5 | inactive |
| CG2901 | DRSC18239 | 3.10e5 | 3.64e5 | 3.36e6 | 2.36e6 | inactive |
| CG17717 | DRSC18130 | 2.40e5 | 3.11e5 | 2.81e6 | 3.45e6 | inactive |
| Alh | DRSC12447 | 29261 | 60907 | 1.32e5 | 2.29e5 | inactive |
| Alh | DRSC12487 | 1.04e5 | 1.27e5 | 2.57e6 | 2.32e6 | inactive |
| Alh | DRSC12488 | 1.17e5 | 1.14e5 | 2.19e6 | 1.81e6 | inactive |
| Alh | DRSC28926 | 1.67e5 | 2.42e5 | 6.41e5 | 9.62e5 | inactive |
| msk | DRSC11340 | 6.51e5 | 6.33e5 | 1.49e6 | 2.02e6 | inactive |
| msk | DRSC23929 | 3.81e5 | 3.62e5 | 4.95e5 | 4.97e5 | inactive |
| nAChRalpha6 | DRSC01096 | 1.70e5 | 1.81e5 | 3.09e5 | 3.44e5 | inactive |
| nAChRalpha6 | DRSC02738 | 8.92e5 | 8.28e5 | 1.59e6 | 1.99e6 | inactive |
| Mic26-27 | DRSC15913 | 1.75e5 | 1.21e5 | 8.01e5 | 8.43e5 | inactive |
| CG14109 | DRSC10112 | 3.31e5 | 2.12e5 | 2.89e6 | 2.13e6 | inactive |
| CG14109 | DRSC25337 | 6.05e5 | 8.14e5 | 6.82e5 | 7.97e5 | inactive |
| CG14120 | DRSC10124 | 2.07e5 | 2.36e5 | 2.21e6 | 1.97e6 | inactive |
| CG14120 | DRSC27955 | 5.42e5 | 3.61e5 | 3.06e6 | 1.62e6 | inactive |
| Pbp45 | DRSC16509 | 1.95e5 | 2.61e5 | 2.23e6 | 3.55e6 | inactive |
| beat-IIa | DRSC14813 | 3.11e5 | 3.56e5 | 3.45e6 | 3.27e6 | inactive |
| beat-IIa | DRSC14814 | 97704 | 98997 | 1.21e6 | 1.22e6 | inactive |
| tey | DRSC11042 | 3.94e5 | 4.12e5 | 2.22e6 | 2.17e6 | inactive |
| tey | DRSC21709 | 6.40e5 | 6.73e5 | 1.89e6 | 1.27e6 | inactive |
| tey | DRSC26114 | 3.30e5 | 3.44e5 | 8.61e5 | 5.60e5 | inactive |
